Some of the results follow. These are further read-outs of the screen, such as a control signal, another cell line or another target. No call is given for them. Compounds called inactive in the main read-out are mostly missing here. Words in brackets tell the shape of the fitted curve; partial curves, single points and poor fits give uncertain potencies.
Test: qHTS Assay for Lipid Storage Modulators in Drosophila S3 Cells;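 for cell number change: cells counted by Cell Tracker Red CMTPX staining in the red channel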
Settings: BODIPY lipid droplet fluorescence, 18-24 h; for cell number change: measured here: cell count max response, cells fed with added oleic acid
Procedure, shortened: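 Drosophila S3 cells got compounds at several concentrations plus oleic acid (400 uM solution). Laser-scanning cytometry with 488 nm excitation read lipid droplets at 500-530 nm and cells at 575-640 nm. Percent activity was relative to 20 uM Triacsin C.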

[1] = measured here: lipid fluorescence (Fed channel) AC50, cells fed with added oleic acid
[2] = measured here: cell number channel AC50, cells fed with added oleic acid

Compound | cell number change [%] | AC50 [1] | AC50 [2]
CN1CCN(c2ccc(NC(=O)Cc3ccccc3)cc2)CC1 | 24.4 | – | –
CC1=C(C(=O)OC2CCCCC2)C(c2cccs2)n2c(nc3ccccc32)N1 (stereo not drawn) | 0.842 | 20.6 µM [rising, single point] | –
Cc1c(C(=O)NCc2ccco2)oc2ccccc12 | 2.61 | 6.51 µM [falling, single point] | –
O=C(Cn1nc(C(=O)O)c2ccccc2c1=O)Nc1ccc(F)cc1 | 18.1 | 29.1 µM [falling, single point] | –
CC(=O)c1ccc(N2CCN(C(=S)Nc3ccc(Oc4ccccc4)cc3)CC2)cc1 | 18.3 | – | 4.61 µM [rising, single point]
Cc1ccccc1-c1nc(CS(=O)(=O)CC(=O)NCCCN2C(C)CCCC2C)c(C)o1 (stereo not drawn) | 11.4 | 0.731 µM [falling, full curve, poor fit] | 0.13 µM [falling, full curve, poor fit]
C=C(C)C1CC=C(C)/C(=N/NC(=O)COc2cccc(C)c2)C1 (stereo not drawn) | -27.2 | 8.2 µM [falling, partial curve] | –
Cc1ccc(-c2nnc(-c3ccc(NC(=O)c4cccs4)cc3)o2)cc1 | -10.2 | – | –
COc1ccc(C(=O)NCCS(=O)(=O)N2CCC3(CC2)OCCO3)cc1 | 41.3 | – | 29.1 µM [rising, single point]
CCNC(=O)C1CC(=O)N(Cc2ccc(F)cc2)C(=Nc2ccc(OC)cc2)S1 (stereo not drawn) | -4.77 | 1.64 µM [rising, partial curve, poor fit] | –
CCOC(=O)c1sc(=N)n(-c2ccc(OC)cc2)c1C | -26.2 | – | 0.0058 µM [falling, full curve, poor fit]
CCN(CC)C(=O)c1c2c(nc3ccccc13)-c1ccccc1CC2 | – | 0.82 µM [rising, full curve, poor fit] | 2.91 µM [rising, single point]
CCOc1nc(NCCc2ccc(OC)c(OC)c2)nc(N2CCN(c3ccc(OC)cc3)CC2)n1 | 16.1 | – | 0.103 µM [rising, full curve, poor fit]
N#Cc1cnn(-c2ccccc2)c1N | 3.36 | 18.4 µM [rising, single point] | –
CCCNC(=O)c1ccc(N2CCC3(CC2)CC(c2ccccc2)=NO3)c(N)c1 | 5.09 | 0.259 µM [rising, full curve, poor fit] | –
O=C(Nc1ccc2oc(=O)ccc2c1)c1cc([N+](=O)[O-])ccc1N1CCOCC1 | 13 | 3.66 µM [rising, single point] | 6.51 µM [rising, single point]
Cc1cc(O)c(C2=Nc3ccccc3SC(c3ccc(Cl)cc3)C2)c(=O)o1 (stereo not drawn) | 10.5 | 29.1 µM [rising, partial curve, poor fit] | –
CCOc1ccc(-c2ccc(C=O)o2)c([N+](=O)[O-])c1 | 27.4 | 14.6 µM [rising, single point] | –
CCc1cccc(C)c1N=Cc1c(O)c2ccccc2oc1=O | -4.99 | 29.1 µM [falling, single point] | –

By substructure: the compounds so far containing fluorine
Compound | cell number change [%] | AC50 [1] | AC50 [2]
O=C(Cn1nc(C(=O)O)c2ccccc2c1=O)Nc1ccc(F)cc1 | 18.1 | 29.1 µM [falling, single point] | –
CCNC(=O)C1CC(=O)N(Cc2ccc(F)cc2)C(=Nc2ccc(OC)cc2)S1 (stereo not drawn) | -4.77 | 1.64 µM [rising, partial curve, poor fit] | –

Going on with the list:

Compound | cell number change [%] | AC50 [1] | AC50 [2]
C=C(C)COc1ccc2c(C)c(CC(=O)OC)c(=O)oc2c1C | – | 0.58 µM [falling, single point] | 0.58 µM [falling, single point]
COCc1[nH]nc2c1C(c1ccnc3ccccc13)C(C#N)=C(N)O2 (stereo not drawn) | -20.6 | 0.651 µM [rising, partial curve, poor fit] | –
N#C/C(=C/c1cccn1-c1cccc(C(=O)O)c1)c1ccc(F)cc1 | 20.6 | – | 0.146 µM [falling, full curve, poor fit]
CCOc1ccc2ccccc2c1C(=O)N[C@@H]1C(=O)N2[C@@H]1SC(C)(C)[C@@H]2C(=O)O | -11.8 | 6.51 µM [falling, single point] | –
COc1ccc(N2CCN(C(=S)NCc3ccc(C)cc3)CC2)cc1 | -14.1 | – | –
CC(=O)N1c2ccccc2C2(O)N=C(C)SC12 (stereo not drawn) | 19.4 | 2.59 µM [rising, full curve, poor fit] | –
COc1ccc(/C=C/C(=O)NC(=S)NNC(=O)c2cccnc2)cc1 | -13.9 | – | –
CCCC[C@@H]1C[C@H]1[C@@H](NC(=O)c1ccccc1)c1ccccc1C(F)(F)F | 11.9 | 7.31 µM [rising, partial curve] | –
COc1cccc(C2C(C(=O)c3sc(C)nc3C)=C(O)C(=O)N2CCN2CCOCC2)c1 (stereo not drawn) | 3.98 | 0.411 µM [falling, single point] | –
CCc1ccc(C(=O)Cn2cnc3cc([N+](=O)[O-])ccc3c2=O)cc1 | 20.8 | 6.51 µM [rising, partial curve] | –
COc1ccc(-c2csc(N3CCN(C(=O)c4ccco4)CC3)n2)cc1 | 26.6 | 6.51 µM [rising, single point] | –
CC(C)Cn1c(SCC(=O)Nc2ccc3[nH]c(=O)[nH]c3c2)nc2ccccc2c1=O | 42.6 | – | 2.59 µM [rising, full curve]
O=C(Nc1ccc2c(c1)OCO2)C(=O)c1c[nH]c2ccccc12 | 72 | 1.64 µM [rising, partial curve, poor fit] | 11.6 µM [rising, partial curve]
COCCn1cc(C(=O)NCc2ccco2)c2c3ccccc3n(C)c2c1=O | 3.45 | 0.00517 µM [rising, full curve, poor fit] | –
CC1=Nc2cccc3cccc(c23)N1 | 24.8 | 3.66 µM [rising, partial curve, poor fit] | 6.51 µM [rising, single point]
Nc1nc(NCc2ccco2)nc(N2CCCCCC2)c1[N+](=O)[O-] | -5.49 | – | –
Cc1cccc(NS(=O)(=O)c2cc(C(=O)N3CCOCC3)ccc2Cl)c1 | – | 0.58 µM [falling, single point] | 0.731 µM [falling, full curve, poor fit]
O=C(Cc1cccs1)Nc1ccccn1 | 11.6 | 0.651 µM [rising, single point] | –

Source: PubChem BioAssay AID2685 (National Center for Advancing Translational Sciences (NCATS), 2010)
